PubChem BioAssay AID1159584 | Peter MacCallum Cancer Centre | 2016

Test: 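Genes that CDH1-null MCF10A cells selectively depend on to survive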 (primary screen)
Cell system: human MCF10A breast epithelial cells, parental and CDH1-null
Reagents: siRNA against human genes
Measurement: 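ATP luminescence (CellTiter-Glo) viability per line relative to mean mock wells over all plates, and the ratio of CDH1-null to parental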
Direction: CDH1-null / parental viability ratio: higher = CDH1-null cells survive relatively better than parental; CDH1-null viability vs mock: higher = more viable CDH1-null cells
Units: CDH1-null viability vs mock in fraction of mock
Shown is an unselected part of about 18,000 deposited reagents. Not all columns of the deposit are shown. No sequences are given here. Not stated in the record: the amount of reagent, the time to read-out.

ZNG1F
- CDH1-null / parental viability ratio: 0.65
- CDH1-null viability vs mock: 0.55

NOP14
- CDH1-null / parental viability ratio: 1.04
- CDH1-null viability vs mock: 0.58

HHLA2
- CDH1-null / parental viability ratio: 0.92
- CDH1-null viability vs mock: 0.68

NR5A2
- CDH1-null / parental viability ratio: 0.86
- CDH1-null viability vs mock: 0.59

RAD23B
- CDH1-null / parental viability ratio: 0.78
- CDH1-null viability vs mock: 0.76

GRK4
- CDH1-null / parental viability ratio: 1.13
- CDH1-null viability vs mock: 0.79

UGT1A3
- CDH1-null / parental viability ratio: 1.1
- CDH1-null viability vs mock: 0.97

SIGLEC8
- CDH1-null / parental viability ratio: 1.67
- CDH1-null viability vs mock: 0.97

BCL2L14
- CDH1-null / parental viability ratio: 1.08
- CDH1-null viability vs mock: 0.99

ENPEP
- CDH1-null / parental viability ratio: 1.08
- CDH1-null viability vs mock: 0.94

F8A3
- CDH1-null / parental viability ratio: 0.95
- CDH1-null viability vs mock: 0.4

UGT2B4
- CDH1-null / parental viability ratio: 0.77
- CDH1-null viability vs mock: 0.57

TBX4
- CDH1-null / parental viability ratio: 1.09
- CDH1-null viability vs mock: 0.59

CCN2
- CDH1-null / parental viability ratio: 0.96
- CDH1-null viability vs mock: 0.81
